One substance from patent publication US20180022779A1 can be followed below.

Protein sequences, listed by entry. Tags and fused reporters are not part of them. Residues count along the entry.
UniProt P70313, residues 2-1202: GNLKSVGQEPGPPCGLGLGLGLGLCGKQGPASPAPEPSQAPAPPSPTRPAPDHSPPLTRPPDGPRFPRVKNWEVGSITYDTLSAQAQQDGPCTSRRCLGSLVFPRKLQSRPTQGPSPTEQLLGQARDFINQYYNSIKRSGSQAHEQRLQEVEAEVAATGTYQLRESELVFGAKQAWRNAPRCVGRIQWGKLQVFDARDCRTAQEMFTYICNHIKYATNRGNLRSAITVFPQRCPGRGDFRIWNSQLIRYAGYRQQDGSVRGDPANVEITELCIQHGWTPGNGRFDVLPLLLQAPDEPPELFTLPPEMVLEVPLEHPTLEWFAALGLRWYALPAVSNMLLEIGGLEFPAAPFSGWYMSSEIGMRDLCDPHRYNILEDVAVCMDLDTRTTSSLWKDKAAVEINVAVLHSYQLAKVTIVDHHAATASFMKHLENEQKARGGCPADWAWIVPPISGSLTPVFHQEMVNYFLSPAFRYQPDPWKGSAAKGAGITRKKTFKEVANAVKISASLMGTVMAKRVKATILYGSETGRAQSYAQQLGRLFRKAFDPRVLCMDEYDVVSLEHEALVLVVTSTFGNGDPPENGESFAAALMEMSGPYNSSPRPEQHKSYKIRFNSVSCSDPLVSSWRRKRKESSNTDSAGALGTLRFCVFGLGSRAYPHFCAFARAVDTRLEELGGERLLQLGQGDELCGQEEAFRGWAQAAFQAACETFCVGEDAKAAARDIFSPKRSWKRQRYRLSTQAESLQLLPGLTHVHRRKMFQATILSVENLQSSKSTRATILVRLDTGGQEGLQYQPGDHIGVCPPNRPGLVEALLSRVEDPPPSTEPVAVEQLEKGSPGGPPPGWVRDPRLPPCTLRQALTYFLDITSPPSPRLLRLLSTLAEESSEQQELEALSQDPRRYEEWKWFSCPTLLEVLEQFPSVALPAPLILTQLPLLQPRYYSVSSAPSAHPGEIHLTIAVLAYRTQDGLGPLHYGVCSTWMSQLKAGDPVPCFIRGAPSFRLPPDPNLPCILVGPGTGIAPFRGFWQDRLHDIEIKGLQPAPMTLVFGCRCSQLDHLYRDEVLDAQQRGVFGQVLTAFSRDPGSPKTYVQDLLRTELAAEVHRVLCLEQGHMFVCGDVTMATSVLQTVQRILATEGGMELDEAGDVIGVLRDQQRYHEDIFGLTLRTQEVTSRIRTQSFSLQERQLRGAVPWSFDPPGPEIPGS
UniProt P01942, residues 2-142: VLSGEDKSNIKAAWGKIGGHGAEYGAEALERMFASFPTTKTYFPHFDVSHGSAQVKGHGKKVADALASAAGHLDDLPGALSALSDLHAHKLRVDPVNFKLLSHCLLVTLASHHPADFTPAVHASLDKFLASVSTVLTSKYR

In the experiment the target is mouse eNOS (endogenous, thoracodorsal arteries) (mouse) (UniProt P70313). Description: proximity ligation assay and co-immunoprecipitation (IP Hb α, blot eNOS) from mouse thoracodorsal arteries.

No constants are given. Whether binding was seen depends on the method and setting. Binding seen in cells or lysates may run through a third protein. Some binding calls cover weakened binding; strength is not graded here.

Take “mouse Hb α (endogenous, thoracodorsal arteries) (from UniProt P01942 2-142)”: the binding result is given as “binds”.
